Laboratory results: PubChem BioAssay AID1224830 (NIAID, 2016)
This is an unselected part of about 18,000 reagents. About 2,900 of all reagents (16%) were called active. 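Calls are made per well; low scores hint the gene aids the LPS response, high scores that it dampens it.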 Repeated entries: four replicate wells of each siRNA pool. Reagent sequences are not shown.

Aim: 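Regulators of TLR4 signalling towards TNF-alpha in macrophage-like cells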 (primary screen)
System: human THP-1 monocytic leukaemia cells, TNF dual-luciferase reporter clone, PMA-differentiated to macrophage-like cells
Reagent: siRNA pool against human genes, 50 nM
Duration: LPS for 4 h, given about 3 days after siRNA transfection
Treatment: bacterial LPS (TLR4 ligand), 10 ng/ml
Measurement: 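TNF firefly reporter luminescence divided by renilla, normalised to the plate median, then turned into a robust z-score for each replicate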
Reading the numbers: TNF reporter robust z-score: higher = stronger TNF reporter response to LPS
Call rule: 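a well is active when its z-score exceeds 2.8 or falls below -1.5; control wells carry no call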

target gene,PubChem SID,TNF reporter robust z-score,Outcome
RBP4,SID315451082,1.06,inactive
RBP4,SID315451082,0.8,inactive
RBP4,SID315451082,0.97,inactive
RBP4,SID315451082,1.25,inactive
CLDN18,SID315456557,0.7,inactive
CLDN18,SID315456557,0.25,inactive
CLDN18,SID315456557,0.4,inactive
CLDN18,SID315456557,1.2,inactive
FRA10AC1,SID315461458,-0.36,inactive
FRA10AC1,SID315461458,-1.03,inactive
FRA10AC1,SID315461458,-0.48,inactive
NOG,SID315453146,-0.42,inactive
NOG,SID315453146,0.11,inactive
NOG,SID315453146,-1.31,inactive
NOG,SID315453146,-0.63,inactive
SLC22A10,SID315464453,-0.09,inactive
SLC22A10,SID315464453,1.53,inactive
SLC22A10,SID315464453,0.88,inactive
SLC22A10,SID315464453,2.8,active
PRUNE2,SID315462663,1.9,inactive
PRUNE2,SID315462663,2.29,inactive
PRUNE2,SID315462663,0.16,inactive
PRUNE2,SID315462663,0.67,inactive
PITX1,SID315450602,-1.94,active
PITX1,SID315450602,-1.49,inactive
PITX1,SID315450602,-2.09,active
PITX1,SID315450602,-1.89,active
TP63,SID315452697,0.54,inactive
TP63,SID315452697,0.94,inactive
TP63,SID315452697,-0.13,inactive
TP63,SID315452697,0.33,inactive
NPAS4,SID315463604,-1.78,active
NPAS4,SID315463604,-1.95,active
NPAS4,SID315463604,-2.16,active
NPAS4,SID315463604,-2.05,active
EIF2B1,SID315448469,1.82,inactive
EIF2B1,SID315448469,0.23,inactive
EIF2B1,SID315448469,0.45,inactive
EIF2B1,SID315448469,0.2,inactive
CMTM5,SID315461355,-0.99,inactive
CMTM5,SID315461355,-0.7,inactive
CMTM5,SID315461355,-0.58,inactive
CMTM5,SID315461355,-0.6,inactive
ZNF195,SID315452276,0.36,inactive
ZNF195,SID315452276,0.91,inactive
ZNF195,SID315452276,0.53,inactive
ZNF195,SID315452276,0.51,inactive
JHY,SID315459520,-0.26,inactive
JHY,SID315459520,-0.72,inactive
JHY,SID315459520,0.69,inactive
JHY,SID315459520,0.52,inactive
CHRFAM7A,SID315460741,2.93,active
CHRFAM7A,SID315460741,2.98,active
CHRFAM7A,SID315460741,0.36,inactive
CHRFAM7A,SID315460741,0.78,inactive
TSACC,SID315461784,2.01,inactive
TSACC,SID315461784,0.33,inactive
TSACC,SID315461784,1.01,inactive
TSACC,SID315461784,-1.01,inactive
CATSPER4,SID315464398,0.91,inactive
CATSPER4,SID315464398,2.85,active
CATSPER4,SID315464398,0.09,inactive
CATSPER4,SID315464398,0.07,inactive
NTS,SID315450326,2,inactive
NTS,SID315450326,1.53,inactive
NTS,SID315450326,0.16,inactive
NTS,SID315450326,-0.67,inactive
ZNF71,SID315458632,-1.11,inactive
ZNF71,SID315458632,-1.06,inactive
ZNF71,SID315458632,-1.26,inactive
ZNF71,SID315458632,-0.58,inactive

The list goes on, starting with the last 6 of the part before.
target gene,PubChem SID,TNF reporter robust z-score,Outcome
NTS,SID315450326,0.16,inactive
NTS,SID315450326,-0.67,inactive
ZNF71,SID315458632,-1.11,inactive
ZNF71,SID315458632,-1.06,inactive
ZNF71,SID315458632,-1.26,inactive
ZNF71,SID315458632,-0.58,inactive
RNF213,SID315458539,-0.36,inactive
RNF213,SID315458539,0.48,inactive
RNF213,SID315458539,1.25,inactive
RNF213,SID315458539,1.21,inactive
RNF213,SID315458566,-1.43,inactive
RNF213,SID315458566,-1.11,inactive
RNF213,SID315458566,-1.48,inactive
RNF213,SID315458566,0.05,inactive
NEK9,SID315460950,-0.09,inactive
NEK9,SID315460950,-0.08,inactive
NEK9,SID315460950,0.18,inactive
NEK9,SID315460950,-0.17,inactive
DPCD,SID315455547,-0.68,inactive
DPCD,SID315455547,-0.73,inactive
DPCD,SID315455547,-0.69,inactive
DPCD,SID315455547,-1.08,inactive
RNF157,SID315461251,-1.07,inactive
RNF157,SID315461251,1.04,inactive
RNF157,SID315461251,-0.53,inactive
RNF157,SID315461251,2,inactive
VAC14,SID315457780,0.01,inactive
VAC14,SID315457780,-0.15,inactive
VAC14,SID315457780,0.05,inactive
VAC14,SID315457780,-0.05,inactive
PSPHP1,SID315452815,-0.74,inactive
PSPHP1,SID315452815,-0.7,inactive
PSPHP1,SID315452815,-0.08,inactive
PSPHP1,SID315452815,0.24,inactive
PIGH,SID315450582,1.38,inactive
PIGH,SID315450582,2.81,active
PIGH,SID315450582,1.69,inactive
PIGH,SID315450582,3.98,active
AKT1,SID315447258,0.81,inactive
AKT1,SID315447258,0.6,inactive
AKT1,SID315447258,-0.09,inactive
AKT1,SID315447258,0.4,inactive
MVD,SID315450085,0.61,inactive
MVD,SID315450085,0.29,inactive
MVD,SID315450085,-0.2,inactive
MVD,SID315450085,0.33,inactive
